Results are given in words; binding and its absence hold for the method and conditions named. In cells and extracts the contact can be indirect. Some entries that bind do so weakly or less than the wild type.

Drawing on paper PMC12160571, this text covers binding for one molecule.

In the test the target is T1, Ethylmalonic encephalopathy protein 1 (mouse (endogenous in liver tissue)) (UniProt Q9DCM0).
T1 sequence: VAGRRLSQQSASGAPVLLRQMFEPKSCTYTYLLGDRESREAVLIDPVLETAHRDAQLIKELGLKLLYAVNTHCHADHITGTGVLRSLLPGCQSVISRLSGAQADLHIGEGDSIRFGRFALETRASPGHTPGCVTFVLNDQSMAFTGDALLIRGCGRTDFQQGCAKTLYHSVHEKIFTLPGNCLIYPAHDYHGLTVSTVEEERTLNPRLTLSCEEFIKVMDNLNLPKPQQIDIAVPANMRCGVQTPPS
Description: co-IP; anti-ETHE1 antibody (B-12, 10 µg) on Pierce protein A/G agarose spin column; pre-treated protein lysates incubated overnight at 4 °C; western blot for Ethe1, ETFDH and Keap1; control, DHEA and DHEA+Met groups. On the technique in general: Immunoblotting shows a protein as a band on a membrane.

B1: Electron transfer flavoprotein dehydrogenase (protein, UniProt Q921G7 33-616)
chain: SSTSAVPQITTHYTVHPREKDKRWEGVNMERFAEEADVVIVGAGPAGLSAAIRLKQLAAEQGKDIRVCLVEKAAQIGAHTLSGACLDPAAFKELFPDWKEKGAPLNTPVTEDRFAILTEKHRIPVPILPGLPMNNHGNYIVRLGHLVSWMGEQAEALGVEVYPGYAAAEVLYHEDGSVKGIATNDVGIQKDGAPKTTFERGLELHAKVTVFAEGCHGHLAKQLYKKFDLRASCDAQTYGIGLKELWIIDEKKWKPGRVDHTVGWPLDRHTYGGSFLYHLNEGEPLVAVGFVVGLDYQNPYLSPFREFQRWKHHPSIQPTLEGGKRIAYGARALNEGGLQSIPKLTFPGGLLIGCSPGFMNVPKIKGTHTAMKSGSLAAESIFKQLTSENLQSKTTGLHVTEYEDNLKQSWVWKELHAVRNIRPSCHGILGVYGGMIYTGIFYWILRGMEPWTLKHKGSDSDQLKPAKDCTPIEYPKPDGQISFDLLSSVALSGTNHEHDQPAHLTLKDDSIPVNRNLSIYDGPEQRFCPAGVYEFVPLEQGDGFRLQINAQNCVHCKTCDIKDPSQNINWVVPEGGGGPAYNGM
Consider B1, for which the binding entry was “binds”.
